No constants are given. Whether binding was seen depends on the method and setting. For part of these data: Binding seen in cells or lysates may run through a third protein. For part of these data: Binding calls can cover weak binding; strength is not graded here. For part of these data: Sequences can lack the tags named with a protein.
Legend:
[1] = molecular target: T1, TssK-Strep of Acinetobacter baumannii (Acinetobacter baumannii 17978) (UniProt R9RHI9); assay: pull-down; affinity copurification: soluble extracts of E. coli BL21(DE3) coproducing Strep-tagged TssK and Flag-tagged TssG loaded on a StrepTrap HP column in 50 mM Tris-HCl pH 8.0, 150 mM NaCl, eluted with 2.5 mM desthiobiotin; immunoblot of lysate, flowthrough, wash and eluate
T1 sequence: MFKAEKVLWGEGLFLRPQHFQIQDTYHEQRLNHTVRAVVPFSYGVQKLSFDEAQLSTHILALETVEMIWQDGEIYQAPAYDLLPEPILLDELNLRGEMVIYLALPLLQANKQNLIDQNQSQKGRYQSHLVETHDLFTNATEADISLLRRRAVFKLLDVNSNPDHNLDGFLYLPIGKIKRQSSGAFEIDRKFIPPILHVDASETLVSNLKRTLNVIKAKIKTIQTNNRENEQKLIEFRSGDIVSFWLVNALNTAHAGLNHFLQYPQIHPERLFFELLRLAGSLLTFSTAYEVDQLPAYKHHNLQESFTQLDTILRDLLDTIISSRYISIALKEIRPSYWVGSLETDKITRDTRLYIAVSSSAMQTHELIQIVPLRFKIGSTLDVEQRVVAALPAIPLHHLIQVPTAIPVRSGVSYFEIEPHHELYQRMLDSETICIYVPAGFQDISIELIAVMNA

[2] = molecular target: Strep-tagged TssK W8A (EAEC) (enteroaggregative Escherichia coli (EAEC) 17-2); assay: as above
[3] = molecular target: Strep-tagged TssK L14A (EAEC) (enteroaggregative Escherichia coli (EAEC) 17-2); assay: ITC; 25 μM TssK in the cell, 1 mM peptide in the syringe; 50 mM HEPES pH 7.0, 150 mM NaCl, 25°C; One Set of Sites model; both purified

Flag-tagged TssG (EAEC)
binding [1]: binds

B1: Flag-tagged TssG of Acinetobacter baumannii (protein, UniProt R9RIP0 1-332)
chain: MQSERWWQDSSITAELFQRPKSFEFIQATRLLRHSPANDSFSSWTDHFKFETSFNLNFPATEIESLELVDERVHLTNLIVGLTGIQGALPYTYTNKIKQAPRQQRAETKEFLSLFNHKLTSQYVESSITYHLPVRYEIENKNDYLDILHALNGYVRSQHQQQDLDEYFAEFSGLMQGQNNTVHALKTMLSCIFKHEITIKEFIQESFKLASDQLTTLGGSQPSLLGINTFCGETIQQIDGKIEIQIGPLKRQQYLKFLPHQELSLKLKKIVETWCSPTLSIDLRLILDESEIQPIRLTQSEESGLGQGAFLMSRKPSTHSHETCYSLIGEQI
binding [2]: no binding

B2: biomimetic cyclic peptide (BCP) (peptide)
peptide: SRPVMGSRPVMGSRPVMG
modifications: head-to-tail cyclization
binding [3]: no binding (tested: 25 μM TssK L14A, 1 mM WT BCP)

Source: paper PMC8406304, “Inhibiting Type VI Secretion System Activity with a Biomimetic Peptide Designed To Target the Baseplate Wedge Complex” (mBio, 2021)
